This is one part of the list. Repeats are few or missing, and single values can be far off.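 Imaging used 1,536-well plates; nuclei positive for cleaved PARP by antibody were divided by total DNA-stained nuclei to yield the apoptosis fraction. Doses for screening kept most cells viable, and cell lines differ markedly in resting and induced cleaved-PARP levels.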
Columns and labels:
Assay in all cases: cleaved PARP positive nuclei fraction relative to DMSO control; melanoma cells; higher = more apoptosis
Details in all cases: library dose: low library concentration; 72 h
MZ2-MEL = tested on: MZ2-MEL
MeWo = tested on: MeWo
RPMI7951 = tested on: RPMI7951
RVH-421 = tested on: RVH-421
SkMel28 = tested on: SkMel28
SkMel2 = tested on: SkMel2
SkMel30 = tested on: SkMel30
SkMel5 = tested on: SkMel5
UACC257 = tested on: UACC257
UACC62 = tested on: UACC62
WM115 = tested on: WM115
WM1716 = tested on: WM1716
WM1745 = tested on: WM1745
WM3526 = tested on: WM3526
WM3619 = tested on: WM3619
WM451Lu = tested on: WM451Lu

Compound	cleaved PARP positive nuclei fraction (MZ2-MEL) [%]	cleaved PARP positive nuclei fraction (MeWo) [%]	cleaved PARP positive nuclei fraction (RPMI7951) [%]	cleaved PARP positive nuclei fraction (RVH-421) [%]	cleaved PARP positive nuclei fraction (SkMel28) [%]	cleaved PARP positive nuclei fraction (SkMel2) [%]	cleaved PARP positive nuclei fraction (SkMel30) [%]	cleaved PARP positive nuclei fraction (SkMel5) [%]	cleaved PARP positive nuclei fraction (UACC257) [%]	cleaved PARP positive nuclei fraction (UACC62) [%]	cleaved PARP positive nuclei fraction (WM115) [%]	cleaved PARP positive nuclei fraction (WM1716) [%]	cleaved PARP positive nuclei fraction (WM1745) [%]	cleaved PARP positive nuclei fraction (WM3526) [%]	cleaved PARP positive nuclei fraction (WM3619) [%]	cleaved PARP positive nuclei fraction (WM451Lu) [%]
COc1cc([C@@H]2c3cc4c(cc3[C@@H](O[C@@H]3O[C@@H]5CO[C@@H](C)O[C@H]5[C@H](O)[C@H]3O)[C@H]3COC(=O)[C@H]23)OCO4)cc(OC)c1O [etoposide] + N#Cc1c(O)c2c(-c3ccc(-c4ccccc4O)cc3)csc2[nH]c1=O [A769662] (first compound 0.02 µM, partner dose 2 µM)	176	101	201	98.7	72.3	104	194	77.2	71.3	39	171	57.9	80.1	78.7	82.4	80.1
Cc1cn(-c2cc(NC(=O)c3ccc(C)c(Nc4nccc(-c5cccnc5)n4)c3)cc(C(F)(F)F)c2)cn1 [nilotinib] + O=S(=O)(c1ccccc1)N(CC(F)(F)F)c1ccc(C(O)(C(F)(F)F)C(F)(F)F)cc1 [T0901317] (first compound 0.2 µM, partner dose 1.4 µM)	98.2	36.6	134	75.9	159	28.2	43.6	81.9	139	254	181	308	116	355	100	103
O=c1[nH]nc(Sc2ncc([N+](=O)[O-])s2)n1-c1ccc2c(c1)OCCO2 + COc1cc2c(Oc3ccc4[nH]c(C)cc4c3F)ncnc2cc1OCCCN1CCCC1 [cediranib] (first compound 0.2 µM, partner dose 0.4 µM)	98.9	176	34	70.5	26.9	87.2	73.7	95.8	95.9	72.4	98.1	284	96.2	55.7	80.5	57.7
O=C(/C=C/c1cccnc1)NCCCCC1CCN(C(=O)c2ccccc2)CC1 + O=C(O)c1ccc(-c2c[nH]c3ncc(-c4ccccc4)cc23)cc1C1CCCC1 [GSK650394] (first compound 0.01 µM, partner dose 0.16 µM)	396	60.2	140	308	226	452	135	142	134	103	413	168	102	64.5	115	116
O=C(/C=C/c1cccnc1)NCCCCC1CCN(C(=O)c2ccccc2)CC1 + Cc1cc([N+](=O)[O-])ccc1NS(=O)(=O)c1cc(Cl)ccc1Cl [FH535] (first compound 0.01 µM, partner dose 1 µM)	366	108	183	126	32	532	167	68.6	77.3	120	57.4	263	180	69.7	87.6	99.1
COc1cc([C@@H]2c3cc4c(cc3[C@@H](O[C@@H]3O[C@@H]5CO[C@@H](C)O[C@H]5[C@H](O)[C@H]3O)[C@H]3COC(=O)[C@H]23)OCO4)cc(OC)c1O [etoposide] + CCN(CC)CCCCNc1ncc2cc(-c3cc(OC)cc(OC)c3)c(NC(=O)NC(C)(C)C)nc2n1 [PD173074] (first compound 0.02 µM, partner dose 0.1 µM)	54.6	330	94.7	43.1	35.9	115	81.2	78.3	332	85.2	77.6	74.2	92.9	121	93.3	193
O=C(/C=C/c1cccnc1)NCCCCC1CCN(C(=O)c2ccccc2)CC1 + O=S(=O)(c1ccccc1)N(CC(F)(F)F)c1ccc(C(O)(C(F)(F)F)C(F)(F)F)cc1 [T0901317] (first compound 0.01 µM, partner dose 1.4 µM)	528	76.8	32.7	41.9	103	309	38.7	80.6	231	57.4	155	368	102	254	129	11
O=C(/C=C/c1cccnc1)NCCCCC1CCN(C(=O)c2ccccc2)CC1 + CC(C)(C)c1cnc(CSc2cnc(NC(=O)C3CCNCC3)s2)o1 [SNS-032] (first compound 0.01 µM, partner dose 0.01 µM)	1980	62.6	79.5	134	70.4	454	82.2	40.2	111	39.7	247	127	99.4	61.8	176	156
CCCCCCCCCCCCCCCCCCOP(=O)([O-])OC1CC[N+](C)(C)CC1 [Perifosine] + OCCn1cc(-c2cnc3nnn(Cc4ccc5ncccc5c4)c3n2)cn1 [PF04217903] (first compound 0.4 µM, partner dose 1 µM)	345	119	227	123	99.4	169	83.9	109	84.5	54	23.5	142	132	80.7	118	155
O=c1[nH]nc(Sc2ncc([N+](=O)[O-])s2)n1-c1ccc2c(c1)OCCO2 + CCN(CC)CCCCNc1ncc2cc(-c3cc(OC)cc(OC)c3)c(NC(=O)NC(C)(C)C)nc2n1 [PD173074] (first compound 0.2 µM, partner dose 0.1 µM)	206	80.4	50	99.8	123	106	41.6	239	127	89.1	170	103	87.5	68.6	113	92.5
Cc1cc(Nc2cc(N3CCN(C)CC3)nc(Sc3ccc(NC(=O)C4CC4)cc3)n2)n[nH]1 [Tozasertib] + CCN(CC)CCCCNc1ncc2cc(-c3cc(OC)cc(OC)c3)c(NC(=O)NC(C)(C)C)nc2n1 [PD173074] (first compound 0.006 µM, partner dose 0.1 µM)	47.1	63.9	76.1	44.4	154	135	51.9	133	77.6	110	30.6	54.9	121	92.9	112	32.3
O=C(/C=C/c1cccnc1)NCCCCC1CCN(C(=O)c2ccccc2)CC1 + Oc1cc(-c2nc(-c3ccccc3)[nH]c2-c2ccncc2)ccc1Cl [L779450] (first compound 0.01 µM, partner dose 0.2 µM)	503	175	210	87.4	196	470	39.1	151	60.7	95.7	56.5	57.3	483	167	107	133
Cc1ccc(Nc2nccc(N(C)c3ccc4c(C)n(C)nc4c3)n2)cc1S(N)(=O)=O [Pazopanib] + COC(=O)c1sccc1S(=O)(=O)Nc1ccc(Nc2ccccc2)cc1OC [GSK0660] (first compound 0.4 µM, partner dose 1 µM)	92.3	86.9	39.5	59.3	143	81.5	504	37.8	128	63.7	63.4	118	103	246	114	42.6
CC[C@]1(O)C[C@H]2CN(CCc3c([nH]c4ccccc34)[C@@](C(=O)OC)(c3cc4c(cc3OC)N(C=O)[C@H]3[C@@](O)(C(=O)OC)[C@H](OC(C)=O)[C@]5(CC)C=CCN6CC[C@]43[C@@H]65)C2)C1 [vincristine] + COc1ccc2c(c1)CCC1C2CCC2(C)C(NCCCCCCN3C(=O)C=CC3=O)CCC12 [U73122] (first compound 0.0001 µM, partner dose 0.4 µM)	110	76.5	250	53.6	21.3	79.3	76.7	265	208	53.6	423	141	89.2	54.9	110	77.2
O=C(Nc1cc(C(F)(F)F)cc(C(F)(F)F)c1)c1cc(Cl)ccc1O + Cc1ccc(NC(=O)c2cccc(N(C)C)c2)cc1NC(=O)c1ccc(O)cc1 [ZM336372] (first compound 0.016 µM, partner dose 2 µM)	73.6	111	53.9	182	121	73.2	67.5	33.1	88.8	149	82.1	81.6	113	160	105	78.2

Only cleaved PARP positive nuclei fraction (SkMel28) [%], cleaved PARP positive nuclei fraction (SkMel5) [%] and cleaved PARP positive nuclei fraction (RVH-421) [%] (two entries from above):
Compound | cleaved PARP positive nuclei fraction (SkMel28) [%] | cleaved PARP positive nuclei fraction (SkMel5) [%] | cleaved PARP positive nuclei fraction (RVH-421) [%]
O=c1[nH]nc(Sc2ncc([N+](=O)[O-])s2)n1-c1ccc2c(c1)OCCO2 + CCN(CC)CCCCNc1ncc2cc(-c3cc(OC)cc(OC)c3)c(NC(=O)NC(C)(C)C)nc2n1 [PD173074] (first compound 0.2 µM, partner dose 0.1 µM) | 123 | 239 | 99.8
Cc1cc(Nc2cc(N3CCN(C)CC3)nc(Sc3ccc(NC(=O)C4CC4)cc3)n2)n[nH]1 [Tozasertib] + CCN(CC)CCCCNc1ncc2cc(-c3cc(OC)cc(OC)c3)c(NC(=O)NC(C)(C)C)nc2n1 [PD173074] (first compound 0.006 µM, partner dose 0.1 µM) | 154 | 133 | 44.4
